Measured values: article PMC12139081
No constants are given. Whether binding was seen depends on the method and setting. In cells and extracts the contact can be indirect. Some results given as binding are weak or reduced against the parent protein; the word gives no strength. Tags and fused reporters may be left off the sequences shown.

Sequences of proteins named here, by UniProt entry; tags and fusion partners are left off.
UniProt P05787: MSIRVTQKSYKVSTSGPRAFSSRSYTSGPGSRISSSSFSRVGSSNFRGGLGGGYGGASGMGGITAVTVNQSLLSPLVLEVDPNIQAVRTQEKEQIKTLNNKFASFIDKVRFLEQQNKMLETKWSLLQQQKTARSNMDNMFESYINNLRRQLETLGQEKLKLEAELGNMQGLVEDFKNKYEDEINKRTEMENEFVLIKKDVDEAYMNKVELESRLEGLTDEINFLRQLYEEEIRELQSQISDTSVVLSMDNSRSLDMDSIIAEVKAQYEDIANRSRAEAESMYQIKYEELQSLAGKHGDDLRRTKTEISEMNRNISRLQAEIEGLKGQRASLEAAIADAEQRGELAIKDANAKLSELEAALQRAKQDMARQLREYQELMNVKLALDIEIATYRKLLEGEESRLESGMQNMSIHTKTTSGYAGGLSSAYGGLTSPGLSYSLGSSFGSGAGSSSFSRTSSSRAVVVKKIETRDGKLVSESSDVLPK

Target: endogenous keratin 8 (K8) of HEK293 cells (human (endogenous in HEK293)) (UniProt P05787)
Test: co-IP; HEK293 cells transfected with V5-tagged SCHAD, crosslinked with 1% paraformaldehyde for 10 min; lysate incubated overnight at 4 °C with agarose beads coupled to the M20 anti-K8 antibody; control agarose resin as negative control; western blot for SCHAD (HPA039588) and K8 (M20)

binding | Binder
binds | V5-tagged SCHAD (WT SCHAD-V5) (enzyme, UniProt Q16836 13-314) SSSSTASASAKKIIVKHVTVIGGGLMGAGIAQVAAATGHTVVLVDQTEDILAKSKKGIEESLRKVAKKKFAENLKAGDEFVEKTLSTIATSTDAASVVHSTDLVVEAIVENLKVKNELFKRLDKFAAEHTIFASNTSSLQITSIANATTRQDRFAGLHFFNPVPVMKLVEVIKTPMTSQKTFESLVDFSKALGKHPVSCKDTPGFIVNRLLVPYLMEAIRLYERGDASKEDIDTAMKLGAGYPMGPFELLDYVGLDTTKFIVDGWHEMDAENPLHQPSPSLNKLVAENKFGKKTGEGFYKYK
binds | endogenous SCHAD protein of HEK293 cells (enzyme, UniProt Q16836 13-314) SSSSTASASAKKIIVKHVTVIGGGLMGAGIAQVAAATGHTVVLVDQTEDILAKSKKGIEESLRKVAKKKFAENLKAGDEFVEKTLSTIATSTDAASVVHSTDLVVEAIVENLKVKNELFKRLDKFAAEHTIFASNTSSLQITSIANATTRQDRFAGLHFFNPVPVMKLVEVIKTPMTSQKTFESLVDFSKALGKHPVSCKDTPGFIVNRLLVPYLMEAIRLYERGDASKEDIDTAMKLGAGYPMGPFELLDYVGLDTTKFIVDGWHEMDAENPLHQPSPSLNKLVAENKFGKKTGEGFYKYK
